# Results from the supplement of paper PMC8728848.
# The other results are listed elsewhere or left out.
# B1: PX9961K-bvu-480-28-480 (Bacteroides vulgatus) (protein)
# chain: NKIPTTMAFRTVTDVDNAVNGLYDLMSGSGYYGAAMFAYGDMKGDDMQSSEESGVCNTCYMFNHRPNSLNAGSLWGRPFYILREAWNILNAIAEGKIESGDEKKLNALKGETMAVIALCQFDLTRCFGYPYTKDKGASLGAPLIDHLVGTYENPPRSTVAQAYDFIIETLEEAVTLMSEEKNNGRMNKYAARALLARIYLYHDDNRKAFDLADQLIKDADTSGSYALYPHEKYVAAWSVEAKFGSESFFEIANSVDDTPGRDSWGYLLNWYGYQKGFVTQKYAEQMLADPGDVRGHLLEENKYAGKTVWWLYKLRGTDLKTAPLECNNVVLRLSEVYLIAAEAGCKLGGDAAVQGLGYLNEIVKRGNPDNEVTMADYTLDRVLDERSKELVGEGHRFFDLLRNGKTIVRKGGYHLPSVDEEVDWDFYKCVLPIPEDQFIFSPEMEQNPGYPKN
# Legend:
# Test in all cases: glycan array binding signal (z-score within array); higher = stronger binding
# Conditions in all cases: glycan notation: IUPAC condensed, linker removed
# [1] = target: GlcNAc(b1-2)Gal(b1-3)GalNAc
# Outline: (§1)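 Columns mapping to the same glycan were averaged after glycan names were converted to IUPAC-condensed notation. The data come from 3228 arrays in the Consortium for Functional Glycomics database, limited to those with an available protein sequence. Binding is reported as a within-array Z-score averaged across arrays of one protein sequence and across linkers.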
# [2] = target: GlcNAc(b1-2)Man(a1-3)[GlcNAc(b1-2)Man(a1-6)]Man(b1-4)GlcNAc(b1-4)GlcNAc
# Outline: as §1
# [3] = target: GlcNAc(b1-2)Man(a1-3)[GlcNAc(b1-2)Man(a1-6)]Man(b1-4)GlcNAc(b1-4)[Fuc(a1-6)]GlcNAc
# Outline: as §1
# [4] = target: GlcNAc(b1-2)Man(a1-3)[GlcNAc(b1-4)][GlcNAc(b1-2)Man(a1-6)]Man(b1-4)GlcNAc(b1-4)GlcNAc
# Outline: as §1
# [5] = target: GlcNAc(b1-2)Man(a1-3)[GlcNAc(b1-4)][GlcNAc(b1-2)Man(a1-6)]Man(b1-4)GlcNAc(b1-4)[Fuc(a1-6)]GlcNAc
# Outline: as §1
# [6] = target: GlcNAc(b1-2)[GlcNAc(b1-4)]Man(a1-3)[GlcNAc(b1-2)Man(a1-6)]Man(b1-4)GlcNAc(b1-4)GlcNAc
# Outline: as §1
# [7] = target: GlcNAc(b1-2)[GlcNAc(b1-4)]Man(a1-3)[GlcNAc(b1-4)][GlcNAc(b1-2)Man(a1-6)]Man(b1-4)GlcNAc(b1-4)GlcNAc
# Outline: as §1
# [8] = target: GlcNAc(b1-2)[GlcNAc(b1-4)]Man(a1-3)[GlcNAc(b1-4)][GlcNAc(b1-2)[GlcNAc(b1-6)]Man(a1-6)]Man(b1-4)GlcNAc(b1-4)GlcNAc
# Outline: as §1
# [9] = target: GlcNAc(b1-2)[GlcNAc(b1-4)]Man(a1-3)[GlcNAc(b1-4)][GlcNAc(b1-2)[GlcNAc(b1-6)]Man(a1-6)]Man(b1-4)GlcNAc(b1-4)[Fuc(a1-6)]GlcNAc
# Outline: as §1
# [10] = target: GlcNAc(b1-2)[GlcNAc(b1-6)]Man(a1-6)[GlcNAc(b1-2)Man(a1-3)]Man(b1-4)GlcNAc(b1-4)GlcNAc
# Outline: as §1
# [11] = target: GlcNAc(b1-2)[GlcNAc(b1-6)]Man(a1-6)[GlcNAc(b1-2)Man(a1-3)]Man(b1-4)GlcNAc(b1-4)[Fuc(a1-6)]GlcNAc
# Outline: as §1
# [12] = target: GlcNAc(b1-2)[GlcNAc(b1-6)]Man(a1-6)[GlcNAc(b1-4)][GlcNAc(b1-2)Man(a1-3)]Man(b1-4)GlcNAc(b1-4)GlcNAc
# Outline: as §1
# GlcNAc(b1-3)Fuc = target: GlcNAc(b1-3)Fuc
# Outline: as §1
# GlcNAc(b1-3)Gal = target: GlcNAc(b1-3)Gal
# Outline: as §1
# [13] = target: GlcNAc(b1-3)Gal(b1-3)GalNAc
# Outline: as §1
# GlcNAc(b1-3)Gal(b1-4)Glc = target: GlcNAc(b1-3)Gal(b1-4)Glc
# Outline: as §1
# [14] = target: GlcNAc(b1-3)Gal(b1-4)GlcNAc
# Outline: as §1
# [15] = target: GlcNAc(b1-3)Gal(b1-4)GlcNAc(b1-2)Man(a1-3)[GlcNAc(b1-3)Gal(b1-4)GlcNAc(b1-2)Man(a1-6)]Man(b1-4)GlcNAc(b1-4)GlcNAc
# Outline: as §1
# [16] = target: GlcNAc(b1-3)Gal(b1-4)GlcNAc(b1-2)Man(a1-3)[GlcNAc(b1-3)Gal(b1-4)GlcNAc(b1-2)Man(a1-6)]Man(b1-4)GlcNAc(b1-4)[Fuc(a1-6)]GlcNAc
# Outline: as §1
# [17] = target: GlcNAc(b1-3)Gal(b1-4)GlcNAc(b1-2)[GlcNAc(b1-3)Gal(b1-4)GlcNAc(b1-6)]Man(a1-6)[GlcNAc(b1-3)Gal(b1-4)GlcNAc(b1-2)Man(a1-3)]Man(b1-4)GlcNAc(b1-4)GlcNAc
# Outline: as §1
# [18] = target: GlcNAc(b1-3)Gal(b1-4)GlcNAc(b1-3)Gal(b1-4)GlcNAc
# Outline: as §1
# [19] = target: GlcNAc(b1-3)Gal(b1-4)GlcNAc(b1-3)Gal(b1-4)GlcNAc(b1-2)Man(a1-3)[GlcNAc(b1-3)Gal(b1-4)GlcNAc(b1-3)Gal(b1-4)GlcNAc(b1-2)Man(a1-6)]Man(b1-4)GlcNAc(b1-4)GlcNAc
# Outline: as §1
# [20] = target: GlcNAc(b1-3)Gal(b1-4)GlcNAc(b1-3)Gal(b1-4)GlcNAc(b1-2)Man(a1-3)[GlcNAc(b1-3)Gal(b1-4)GlcNAc(b1-3)Gal(b1-4)GlcNAc(b1-2)Man(a1-6)]Man(b1-4)GlcNAc(b1-4)[Fuc(a1-6)]GlcNAc
# Outline: as §1
# [21] = target: GlcNAc(b1-3)Gal(b1-4)GlcNAc(b1-3)Gal(b1-4)GlcNAc(b1-2)[GlcNAc(b1-3)Gal(b1-4)GlcNAc(b1-3)Gal(b1-4)GlcNAc(b1-6)]Man(a1-6)[GlcNAc(b1-3)Gal(b1-4)GlcNAc(b1-3)Gal(b1-4)GlcNAc(b1-2)Man(a1-3)]Man(b1-4)GlcNAc(b1-4)[Fuc(a1-6)]GlcNAc
# Outline: as §1
# [22] = target: GlcNAc(b1-3)Gal(b1-4)GlcNAc(b1-3)Gal(b1-4)GlcNAc(b1-3)Gal(b1-4)GlcNAc(b1-2)Man(a1-3)[GlcNAc(b1-3)Gal(b1-4)GlcNAc(b1-3)Gal(b1-4)GlcNAc(b1-3)Gal(b1-4)GlcNAc(b1-2)Man(a1-6)]Man(b1-4)GlcNAc(b1-4)GlcNAc
# Outline: as §1
# [23] = target: GlcNAc(b1-3)Gal(b1-4)GlcNAc(b1-3)Gal(b1-4)GlcNAc(b1-3)Gal(b1-4)GlcNAc(b1-2)Man(a1-3)[GlcNAc(b1-3)Gal(b1-4)GlcNAc(b1-3)Gal(b1-4)GlcNAc(b1-3)Gal(b1-4)GlcNAc(b1-2)Man(a1-6)]Man(b1-4)GlcNAc(b1-4)[Fuc(a1-6)]GlcNAc
# Outline: as §1
# [24] = target: GlcNAc(b1-3)Gal(b1-4)GlcNAc(b1-3)Gal(b1-4)GlcNAc(b1-3)Gal(b1-4)GlcNAc(b1-2)[GlcNAc(b1-3)Gal(b1-4)GlcNAc(b1-3)Gal(b1-4)GlcNAc(b1-3)Gal(b1-4)GlcNAc(b1-6)]Man(a1-6)[GlcNAc(b1-3)Gal(b1-4)GlcNAc(b1-3)Gal(b1-4)GlcNAc(b1-3)Gal(b1-4)GlcNAc(b1-2)Man(a1-3)]Man(b1-4)GlcNAc(b1-4)[Fuc(a1-6)]GlcNAc
# Outline: as §1
# [25] = target: GlcNAc(b1-3)Gal(b1-4)GlcNAc(b1-3)Gal(b1-4)GlcNAc(b1-3)Gal(b1-4)GlcNAc(b1-3)Gal(b1-4)GlcNAc(b1-2)Man(a1-3)[GlcNAc(b1-3)Gal(b1-4)GlcNAc(b1-3)Gal(b1-4)GlcNAc(b1-3)Gal(b1-4)GlcNAc(b1-3)Gal(b1-4)GlcNAc(b1-2)Man(a1-6)]Man(b1-4)GlcNAc(b1-4)GlcNAc
# Outline: as §1
# [26] = target: GlcNAc(b1-3)Gal(b1-4)GlcNAc(b1-3)Gal(b1-4)GlcNAc(b1-3)Gal(b1-4)GlcNAc(b1-3)Gal(b1-4)GlcNAc(b1-2)Man(a1-3)[GlcNAc(b1-3)Gal(b1-4)GlcNAc(b1-3)Gal(b1-4)GlcNAc(b1-3)Gal(b1-4)GlcNAc(b1-3)Gal(b1-4)GlcNAc(b1-2)Man(a1-6)]Man(b1-4)GlcNAc(b1-4)[Fuc(a1-6)]GlcNAc
# Outline: as §1
# [27] = target: GlcNAc(b1-3)Gal(b1-4)GlcNAc(b1-3)Gal(b1-4)GlcNAc(b1-3)Gal(b1-4)GlcNAc(b1-3)Gal(b1-4)GlcNAc(b1-2)[GlcNAc(b1-3)Gal(b1-4)GlcNAc(b1-3)Gal(b1-4)GlcNAc(b1-3)Gal(b1-4)GlcNAc(b1-3)Gal(b1-4)GlcNAc(b1-6)]Man(a1-6)[GlcNAc(b1-3)Gal(b1-4)GlcNAc(b1-3)Gal(b1-4)GlcNAc(b1-3)Gal(b1-4)GlcNAc(b1-3)Gal(b1-4)GlcNAc(b1-2)Man(a1-3)]Man(b1-4)GlcNAc(b1-4)[Fuc(a1-6)]GlcNAc
# Outline: as §1
# [28] = target: GlcNAc(b1-3)Gal(b1-4)GlcNAc(b1-3)Gal(b1-4)GlcNAc(b1-3)GalNAc
# Outline: as §1
# [29] = target: GlcNAc(b1-3)Gal(b1-4)GlcNAc(b1-3)GalNAc
# Outline: as §1
# [30] = target: GlcNAc(b1-3)Gal(b1-4)GlcNAc(b1-3)[GlcNAc(b1-3)Gal(b1-4)GlcNAc(b1-3)]GalNAc
# Outline: as §1
# [31] = target: GlcNAc(b1-3)Gal(b1-4)GlcNAc(b1-6)[Gal(b1-3)]GalNAc
# Outline: as §1
# [32] = target: GlcNAc(b1-3)Gal(b1-4)GlcNAc(b1-6)[GlcNAc(b1-3)Gal(b1-3)]GalNAc
# Outline: as §1
# [33] = target: GlcNAc(b1-3)Gal(b1-4)GlcNAc(b1-6)[GlcNAc(b1-3)]Gal(b1-4)GlcNAc
# Outline: as §1
# GlcNAc(b1-3)GalNAc = target: GlcNAc(b1-3)GalNAc
# Outline: as §1
binder,measurement,setting,value
B1,glycan array binding signal (z-score),[1],0.374
same,glycan array binding signal (z-score),[2],-0.374
same,glycan array binding signal (z-score),[3],0.198
same,glycan array binding signal (z-score),[4],0.528
same,glycan array binding signal (z-score),[5],0.291
same,glycan array binding signal (z-score),[6],-0.008
same,glycan array binding signal (z-score),[7],-0.024
same,glycan array binding signal (z-score),[8],0.193
same,glycan array binding signal (z-score),[9],-0.091
same,glycan array binding signal (z-score),[10],0.456
same,glycan array binding signal (z-score),[11],0.616
same,glycan array binding signal (z-score),[12],-0.028
same,glycan array binding signal (z-score),GlcNAc(b1-3)Fuc,1.16
same,glycan array binding signal (z-score),GlcNAc(b1-3)Gal,-0.681
same,glycan array binding signal (z-score),[13],0.801
same,glycan array binding signal (z-score),GlcNAc(b1-3)Gal(b1-4)Glc,-0.284
same,glycan array binding signal (z-score),[14],-0.48
same,glycan array binding signal (z-score),[15],0.679
same,glycan array binding signal (z-score),[16],-0.266
same,glycan array binding signal (z-score),[17],0.824
same,glycan array binding signal (z-score),[18],0.002
same,glycan array binding signal (z-score),[19],0.811
same,glycan array binding signal (z-score),[20],1.89
same,glycan array binding signal (z-score),[21],0.766
same,glycan array binding signal (z-score),[22],0.08
same,glycan array binding signal (z-score),[23],1.18
same,glycan array binding signal (z-score),[24],0.665
same,glycan array binding signal (z-score),[25],0.69
same,glycan array binding signal (z-score),[26],0.909
same,glycan array binding signal (z-score),[27],0.471
same,glycan array binding signal (z-score),[28],-0.266
same,glycan array binding signal (z-score),[29],-0.134
same,glycan array binding signal (z-score),[30],-0.207
same,glycan array binding signal (z-score),[31],-0.277
same,glycan array binding signal (z-score),[32],-0.158
same,glycan array binding signal (z-score),[33],1.77
same,glycan array binding signal (z-score),GlcNAc(b1-3)GalNAc,0.105

# In a second layout: entries from further up
binder | measurement | setting | value
B1 | glycan array binding signal (z-score) | [23] | 1.18
same | glycan array binding signal (z-score) | [24] | 0.665
